# Binding screen against folded nucleic acids

Calls as published in the ROBIN set (doi:10.1002/anie.202211358).

Oligonucleotides screened, 5′ to 3′:
SAM-II: SAM-II riboswitch RNA pseudoknot, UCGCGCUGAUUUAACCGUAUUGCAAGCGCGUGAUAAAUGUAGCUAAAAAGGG. About 200 hits among about 21,000 compounds.
TPP: TPP riboswitch RNA three-way junction, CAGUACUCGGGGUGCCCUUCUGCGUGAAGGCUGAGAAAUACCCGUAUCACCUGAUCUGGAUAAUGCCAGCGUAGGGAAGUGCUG. About 160 hits among about 24,000 compounds.
PreQ1: PreQ1 riboswitch RNA pseudoknot, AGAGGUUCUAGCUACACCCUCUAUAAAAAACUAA. From B. subtilis. About 170 hits among about 24,000 compounds.

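Compounds were printed on reactive glass slides in duplicate spots, a dye-labelled oligonucleotide was laid over them, and the fluorescence left after washing was read. The data file lists only calls. An earlier report of the laboratory on the PreQ1, TPP and SAM-II riboswitches (doi:10.1038/s41467-019-09493-3) used 1 µM RNA for 2 h and required a mean Z-score above 3 (spot signal-to-noise against the whole library), a score well above that on a control array, and duplicate spots agreeing (coefficient of variation under 100); it then also set aside compounds that hit other targets, which this list keeps. The cut-offs behind this list may differ. These are primary screening calls, not affinities; a compound without a hit may have attached poorly or may still bind in solution.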
“active” means called a hit, “inactive” means screened and not called a hit.
This is an unselected part of the compounds tested.
A target missing from an entry has no call listed here.

For COC(=O)C1=C(N)OC2=C(C(=O)CCC2)C1c1cc(OC)ccc1OC (configuration not stated) the calls were SAM-II: inactive; TPP: inactive; PreQ1: inactive.
For Cc1cc(C)c(-c2c(NCc3ccc(F)cc3)c(=O)c2=O)cc1C the calls were TPP: inactive; PreQ1: inactive.
For O=S1(=O)C[C@H](NCc2ccccc2)[C@@H](S(=O)(=O)c2ccc(F)cc2)C1 the calls were TPP: inactive; PreQ1: inactive.
For COCCCNCc1ccc(-c2ccc(C(C)O)cc2)o1 (configuration not stated) the calls were TPP: inactive; PreQ1: inactive.
For CCc1nnc2c3ccccc3nc(Nc3ccc(F)cc3C)n12 the calls were SAM-II: inactive; TPP: inactive; PreQ1: inactive.
For Cc1cccc(NS(=O)(=O)c2cc(Br)cnc2N)c1 the calls were TPP: inactive; PreQ1: inactive.
For CC(O)CN1CC2(CCC1=O)CCN(C(=O)c1ccc(CO)o1)CC2 (configuration not stated) the calls were SAM-II: inactive; TPP: inactive; PreQ1: inactive.
For Cc1cc(F)ccc1NS(=O)(=O)c1cc(Br)cnc1N the calls were TPP: inactive; PreQ1: inactive.
For COc1ccc(C(NC2CCN(S(C)(=O)=O)CC2)c2ccncc2)cc1 (configuration not stated) the calls were SAM-II: inactive; TPP: inactive; PreQ1: inactive.
For Nc1ncc(Br)cc1S(=O)(=O)Nc1ccc(Cl)cc1F the calls were TPP: inactive; PreQ1: inactive.
For CCc1cccc(C)c1Nc1nc(C)nc2c1CCC2 the calls were TPP: inactive; PreQ1: inactive.
For CC(Cn1nc(C2CCNCC2)n(-c2ccccc2)c1=O)N1CCOCC1 (configuration not stated) the calls were SAM-II: inactive; TPP: inactive; PreQ1: inactive.
For COc1cccc(CN2c3ccccc3C3=C(C(c4ccc(F)cc4)C(C#N)=C(N)O3)S2(=O)=O)c1 (configuration not stated) the calls were TPP: inactive; PreQ1: inactive.
For CCc1c(C)nc(N)nc1N1CC(Oc2ccc(F)cc2)C1 the calls were SAM-II: inactive; TPP: inactive; PreQ1: inactive.
For CCOC(=O)c1c(-c2cccc(OC)c2)csc1N the calls were SAM-II: inactive; TPP: inactive; PreQ1: inactive.
For COc1ccccc1NC(c1ccccc1)c1nnc(-c2ccccc2F)o1 (configuration not stated) the calls were SAM-II: inactive; TPP: inactive; PreQ1: inactive.
For Cc1ccc(C2C(C#N)=C(N)Oc3[nH]nc(C(F)(F)F)c32)cc1 (configuration not stated) the calls were SAM-II: inactive; TPP: inactive; PreQ1: inactive.
For N#CC1=C(N)Oc2[nH]nc(-c3ccccc3)c2C1c1ccc(Br)s1 (configuration not stated) the calls were SAM-II: inactive; TPP: inactive; PreQ1: inactive.
For CC(=O)Nc1ccc(CNC(=O)CNC(C)c2cnn(C)c2)cc1 (configuration not stated) the calls were SAM-II: inactive; TPP: inactive; PreQ1: inactive.
For CNCC1C(C)C=C(C)CC1C (configuration not stated) the calls were SAM-II: inactive; TPP: inactive; PreQ1: inactive.
For Cc1c(Cl)cccc1-c1ccc(CNCCN(C)C)o1 the calls were TPP: inactive; PreQ1: inactive.
For Fc1ccc(-c2noc3ncnc(NCCN4CCOCC4)c23)cc1 the calls were TPP: inactive; PreQ1: inactive.
For COc1ccc(NC2C=CS(=O)(=O)C2)cc1 (configuration not stated) the calls were SAM-II: inactive; TPP: inactive; PreQ1: inactive.

3 of the entries, repeated:

- COc1ccc(C(NC2CCN(S(C)(=O)=O)CC2)c2ccncc2)cc1 (configuration not stated) : SAM-II: inactive; TPP: inactive; PreQ1: inactive
- COc1cccc(CN2c3ccccc3C3=C(C(c4ccc(F)cc4)C(C#N)=C(N)O3)S2(=O)=O)c1 (configuration not stated) : TPP: inactive; PreQ1: inactive
- O=S1(=O)C[C@H](NCc2ccccc2)[C@@H](S(=O)(=O)c2ccc(F)cc2)C1 : TPP: inactive; PreQ1: inactive